How the values were obtained:
MLP15 = molecular target: T1, MLP15 (Papaver somniferum, UniProt P19825); experiment: ANS displacement assay
T1 sequence (P19825 1-159): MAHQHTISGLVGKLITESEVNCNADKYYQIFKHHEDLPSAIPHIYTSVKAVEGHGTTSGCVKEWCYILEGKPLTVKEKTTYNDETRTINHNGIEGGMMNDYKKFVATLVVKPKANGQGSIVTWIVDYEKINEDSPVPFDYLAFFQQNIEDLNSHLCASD

The chains behind the UniProt entries cited, without tags or fusion partners. Where a name states a change or a piece, a line headed by the entry shows the natural chain unless it says otherwise.
UniProt P0DYP9, entry or part of it: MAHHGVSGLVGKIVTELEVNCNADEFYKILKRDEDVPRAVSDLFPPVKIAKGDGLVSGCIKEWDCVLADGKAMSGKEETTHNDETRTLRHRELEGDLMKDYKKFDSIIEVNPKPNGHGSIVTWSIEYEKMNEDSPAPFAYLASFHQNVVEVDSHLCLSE
UniProt A0A2U9GGW3: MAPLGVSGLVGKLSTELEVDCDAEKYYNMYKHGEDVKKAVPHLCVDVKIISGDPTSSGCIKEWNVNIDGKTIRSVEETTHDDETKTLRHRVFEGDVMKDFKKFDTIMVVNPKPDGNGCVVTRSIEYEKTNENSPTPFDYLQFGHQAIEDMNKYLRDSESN

NISO [1] = molecular target: T2, NISO (Papaver somniferum, UniProt P0DYP9); experiment: Isothermal titration calorimetry; assay type: binding; design: made in house; host or cells: E. coli ArcticExpress (DE3); conditions: ITC, PBS pH 7.4, 25 °C, single-site model
Method: ITC experiments were conducted using a Microcal VP instrument (Malvern Pananalytical, Malvern, UK). […] Eluates were twice dialysed to equilibrium (i.e., 10–12 h at 4 °C) against a 1000-fold (2–4 L) volume of PBS, pH 7.4 (25 mM sodium phosphate, 50 mM NaCl) or CBS, pH 5.5, resulting in a theoretical million-fold dilution of undesired small molecules (e.g., <0.2 µM imidazole). Dialysis was carried out in boiled Spectra/Por 1 6–8 kDa MWCO 0.32 ml/cm (Spectrum Labs, USA) tubing thoroughly washed with either buffer before use. The second 1000-fold volume of dialysis buffer was filtered and degassed using a reusable bottle-top filtration apparatus (Nalgene, USA) with disposable […] cellulose filters (VWR, Canada) prior to storage at 4 °C. […] Any precipitate was separated from the remaining soluble protein fraction which was quantified by absorption at A280nm and diluted with filtered dialysis buffer immediately before use.
Thermograms were recorded at 25 °C, with a reference power of 10 (dpu/sec) and monitoring of 30 injections of 9 µl BIA ligand solutions into a sample cell containing 1.4 ml of an MLP/PR10 protein solution, with 300 seconds between injections. […] After subtraction, binding isotherms were analyzed in MicroCal Origin 7 (MicroCal, USA) by fitting a single-site binding model using non-linear least squares regression analysis repeated until convergence. […]

NISO [2] = molecular target: T2, NISO; experiment: ANS displacement assay
THS2 = THS2 (Papaver somniferum, UniProt A0A2U9GGW3); experiment: ANS displacement assay; conditions: 10 µM protein and 10 µM ANS, CBS pH 5.5

In the case of `CN1CC[C@]23c4c5ccc(O)c4O[C@H]2[C@@H](O)C=C[C@H]3[C@H]1C5` [Morphine, morphine], the Kd (MLP15) is reported as 1060 µM, the Kd (NISO [1]) is reported as 5.46 ± 0.22 µM and the Kd (NISO [2]) is reported as 44 µM. It also gave an IC50 (THS2) greater than 1000 µM.
